In paper PMC7794610:

Target: MNT (of the co-IP with REL ΔRID; construct not told) (not stated (human or mouse cDNA cloned))
Assay: co-IP; REL wild type or REL lacking the RID with MNT (Supplementary Fig. S1c,d); cells and MNT construct not given

B1: human FLAG-REL (protein, UniProt Q04864 1-619)
chain: MASGAYNPYIEIIEQPRQRGMRFRYKCEGRSAGSIPGEHSTDNNRTYPSIQIMNYYGKGKVRITLVTKNDPYKPHPHDLVGKDCRDGYYEAEFGQERRPLFFQNLGIRCVKKKEVKEAIITRIKAGINPFNVPEKQLNDIEDCDLNVVRLCFQVFLPDEHGNLTTALPPVVSNPIYDNRAPNTAELRICRVNKNCGSVRGGDEIFLLCDKVQKDDIEVRFVLNDWEAKGIFSQADVHRQVAIVFKTPPYCKAITEPVTVKMQLRRPSDQEVSESMDFRYLPDEKDTYGNKAKKQKTTLLFQKLCQDHVETGFRHVDQDGLELLTSGDPPTLASQSAGITVNFPERPRPGLLGSIGEGRYFKKEPNLFSHDAVVREMPTGVSSQAESYYPSPGPISSGLSHHASMAPLPSSSWSSVAHPTPRSGNTNPLSSFSTRTLPSNSQGIPPFLRIPVGNDLNASNACIYNNADDIVGMEASSMPSADLYGISDPNMLSNCSVNMMTTSSDSMGETDNPRLLSMNLENPSCNSVLDPRDLRQLHQMSSSSMSAGANSNTTVFVSQSDAFEGSDFSCADNSMINESGPSNSTNPNSHGFVQDSQYSGIGSMQNEQLSDSFPYEFFQV
  binding: binds

These are yes or no findings as the source states them, for the method shown. In cells and extracts the contact can be indirect. Binding calls can cover weak binding; strength is not graded here. Where a sequence is shown, tags or fusion partners need not be part of it.
